Measured values published in publication PMC3313957.
Results are given in words; binding and its absence hold for the method and conditions named. Binding seen in cells or lysates may run through a third protein. Some entries that bind do so weakly or less than the wild type.

Sequences of proteins named here, by UniProt entry; tags and fusion partners are left off.
UniProt B0BNA7: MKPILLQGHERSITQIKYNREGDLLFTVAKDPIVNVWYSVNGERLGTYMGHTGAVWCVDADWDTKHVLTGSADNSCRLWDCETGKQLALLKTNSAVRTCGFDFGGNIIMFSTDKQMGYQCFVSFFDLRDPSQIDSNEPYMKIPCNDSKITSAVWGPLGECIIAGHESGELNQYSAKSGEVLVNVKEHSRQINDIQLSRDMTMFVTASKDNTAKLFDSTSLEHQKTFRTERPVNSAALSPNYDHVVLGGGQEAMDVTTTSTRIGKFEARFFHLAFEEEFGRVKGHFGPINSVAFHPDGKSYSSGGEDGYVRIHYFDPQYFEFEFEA

What was measured:
[1] = molecular target: T1, GTP cyclohydrolase I (rat (endogenous in rat liver, brain, heart and kidney)) (UniProt P22288); experiment: co-IP; rat liver homogenate on GCH1 antibody cross-linked to agarose, overnight at 4°C; IgG agarose as control; eluates immunoblotted
T1 sequence: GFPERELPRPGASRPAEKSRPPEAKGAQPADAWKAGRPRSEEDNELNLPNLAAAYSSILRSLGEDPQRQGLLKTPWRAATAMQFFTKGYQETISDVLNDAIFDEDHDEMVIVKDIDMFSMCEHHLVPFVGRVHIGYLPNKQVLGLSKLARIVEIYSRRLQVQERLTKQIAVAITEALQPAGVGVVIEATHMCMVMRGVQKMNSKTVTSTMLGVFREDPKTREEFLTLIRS

[2] = molecular target: T1, GTP cyclohydrolase I (rat (endogenous in rat liver, brain, heart and kidney)); experiment: co-IP; rat kidney homogenate on GCH1 antibody cross-linked to agarose, overnight at 4°C; IgG agarose as control; eluates immunoblotted
[3] = molecular target: T1, GTP cyclohydrolase I (rat (endogenous in rat liver, brain, heart and kidney)); experiment: co-IP; rat brain homogenate on GCH1 antibody cross-linked to agarose, overnight at 4°C; IgG agarose as control; eluates immunoblotted
[4] = molecular target: T1, GTP cyclohydrolase I (rat (endogenous in rat liver, brain, heart and kidney)); experiment: co-IP; rat heart homogenate on GCH1 antibody cross-linked to agarose, overnight at 4°C; IgG agarose as control; eluates immunoblotted

Measured: binding

Eukaryotic translation initiation factor 3 subunit I (from UniProt B0BNA7 1-325)
binds: all assays above
